# Laboratory results from paper PMC11045720.
# By UniProt entry, the sequences of proteins in these tests, tags left out. Where a name states a change or a piece, a line headed by the entry shows the natural chain unless it says otherwise. Chains listed by the source or under a name are the forms on record and can include a tag or linker.
# RuvBL1ΔT127-E233 (Q9Y265, form named): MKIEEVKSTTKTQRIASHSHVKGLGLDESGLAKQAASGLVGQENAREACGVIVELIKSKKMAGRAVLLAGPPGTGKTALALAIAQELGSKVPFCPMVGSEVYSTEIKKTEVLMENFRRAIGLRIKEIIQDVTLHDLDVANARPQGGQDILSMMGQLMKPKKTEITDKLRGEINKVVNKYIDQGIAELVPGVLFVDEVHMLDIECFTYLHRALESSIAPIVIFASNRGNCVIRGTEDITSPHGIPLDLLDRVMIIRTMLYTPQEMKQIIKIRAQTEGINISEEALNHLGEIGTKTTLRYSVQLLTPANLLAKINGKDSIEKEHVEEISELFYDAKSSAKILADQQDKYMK
# RuvBL2ΔE134-E237 (Q9Y230, form named): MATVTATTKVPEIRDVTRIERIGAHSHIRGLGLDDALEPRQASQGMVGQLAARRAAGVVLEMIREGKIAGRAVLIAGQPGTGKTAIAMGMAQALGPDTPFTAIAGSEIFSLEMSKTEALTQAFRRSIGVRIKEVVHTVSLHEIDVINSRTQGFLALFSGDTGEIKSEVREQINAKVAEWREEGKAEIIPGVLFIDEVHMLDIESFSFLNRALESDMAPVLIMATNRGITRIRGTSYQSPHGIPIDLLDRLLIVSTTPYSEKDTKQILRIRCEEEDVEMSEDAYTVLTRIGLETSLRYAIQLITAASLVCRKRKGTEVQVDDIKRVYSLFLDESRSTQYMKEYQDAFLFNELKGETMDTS
# Results are given in words; binding and its absence hold for the method and conditions named. Some binding calls cover weakened binding; strength is not graded here.
# T1: PIH1D2(231-315) (UniProt Q8WWB5)
# T1 sequence: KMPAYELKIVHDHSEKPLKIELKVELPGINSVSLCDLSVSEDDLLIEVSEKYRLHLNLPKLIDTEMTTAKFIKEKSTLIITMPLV
# What was measured:
# PIH1D2(231-315) = molecular target: T1, PIH1D2(231-315); experiment: SEC; co-expressed in E. coli; StrepTactin XT (eluted with 50 mM biotin), then Superdex 200 16/60 in 20 mM Hepes pH 8, 300 mM NaCl, 0.5 mM TCEP
# RuvBL1ΔT127-E233 = RuvBL1ΔT127-E233 (UniProt Q9Y265); experiment: cross-linking; XL-MS: R2SP with 25, 100, 400 molar excesses of DSBU (45 min, 18 °C), triplicates, Trypsin/Lys-C digestion, nanoLC-MS/MS, XlinkX; cross-links kept if in 2 of 3 replicates; both purified
# RuvBL2ΔE134-E237 = RuvBL2ΔE134-E237 (UniProt Q9Y230); experiment: as above
# [1] = molecular target: RuvBL1ΔT127-E233-RuvBL2ΔE134-E237 complex (UniProt Q9Y265); experiment: SEC; pure R1R2 mixed with excess pure SPAG1/PIH1D2 at 1:4 over night at 4 °C; Superose 6 16/60 in 20 mM Hepes pH 8, 150 mM NaCl, 2 mM MgCl2, 0.5 mM TCEP; both purified
# [2] = molecular target: RuvBL1ΔT127-E233-RuvBL2ΔE134-E237 complex (UniProt Q9Y265); experiment: cross-linking; R2SP at 1 mg/mL in 20 mM Hepes, 150 mM NaCl, pH 8 with DSSO or DSBU at 25 to 400 molar excess, 45 min at room temperature; read by denaturing mass photometry; both purified
Binder,binding (PIH1D2(231-315)),binding (RuvBL1ΔT127-E233),binding (RuvBL2ΔE134-E237),binding [1],binding [2]
"SPAG1(622-926) (domain or fragment, UniProt Q07617 622-926) TFKALKEEGNQCVNDKNYKDALSKYSECLKINNKECAIYTNRALCYLKLCQFEEAKQDCDQALQLADGNVKAFYRRALAHKGLKNYQKSLIDLNKVILLDPSIIEAKMELEEVTRLLNLKDKTAPFNKEKERRKIEIQEVNEGKEEPGRPAGEVSMGCLASEKGGKSSRSPEDPEKLPIAKPNNAYEFGQIINALSTRKDKEACAHLLAITAPKDLPMFLSNKLEGDTFLLLIQSLKNNLIEKDPSLVYQHLLYLSKAERFKMMLTLISKGQKELIEQLFEDLSDTPNNHFTLEDIQALKRQYEL",binds,binds,binds,,
"SPAG1(622-926)/PIH1D2(231-315) complex (complex, UniProt Q07617 622-926; Q8WWB5 231-315) chain 1: TFKALKEEGNQCVNDKNYKDALSKYSECLKINNKECAIYTNRALCYLKLCQFEEAKQDCDQALQLADGNVKAFYRRALAHKGLKNYQKSLIDLNKVILLDPSIIEAKMELEEVTRLLNLKDKTAPFNKEKERRKIEIQEVNEGKEEPGRPAGEVSMGCLASEKGGKSSRSPEDPEKLPIAKPNNAYEFGQIINALSTRKDKEACAHLLAITAPKDLPMFLSNKLEGDTFLLLIQSLKNNLIEKDPSLVYQHLLYLSKAERFKMMLTLISKGQKELIEQLFEDLSDTPNNHFTLEDIQALKRQYEL chain 2: KMPAYELKIVHDHSEKPLKIELKVELPGINSVSLCDLSVSEDDLLIEVSEKYRLHLNLPKLIDTEMTTAKFIKEKSTLIITMPLV",,,,binds,binds
